Results: patent US8883850B2, “Naphthalene carboxamide M1 receptor positive allosteric modulators” (Merck Sharp & Dohme Corp., priority 2010, dated 2014)

Sequences of proteins named here, by UniProt entry; tags and fusion partners are left off.
UniProt P11229, whole entry: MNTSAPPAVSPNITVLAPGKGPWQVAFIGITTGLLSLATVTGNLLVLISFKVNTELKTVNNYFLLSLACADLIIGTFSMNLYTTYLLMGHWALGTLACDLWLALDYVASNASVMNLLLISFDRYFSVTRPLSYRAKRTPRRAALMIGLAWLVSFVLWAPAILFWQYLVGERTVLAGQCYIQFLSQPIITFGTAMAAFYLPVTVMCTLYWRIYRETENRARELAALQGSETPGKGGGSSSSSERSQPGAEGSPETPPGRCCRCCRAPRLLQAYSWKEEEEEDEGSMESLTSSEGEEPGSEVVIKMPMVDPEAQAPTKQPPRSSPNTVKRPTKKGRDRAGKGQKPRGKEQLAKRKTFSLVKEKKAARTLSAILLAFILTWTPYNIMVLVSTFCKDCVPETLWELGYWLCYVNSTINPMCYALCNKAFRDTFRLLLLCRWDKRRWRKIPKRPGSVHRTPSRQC

Biological target: acetylcholine muscarinic M1 receptor (Homo sapiens, UniProt P11229)
Assay: M1 FLIPR assay: intracellular calcium, potentiation of acetylcholine EC20
Conditions: read-out: M1 IP Value; inflection point value from FLIPR assay; CHOnfat/hM1 cells; 4 min pre-incubation, then acetylcholine EC20 (3 nM final); Table 1, Formula (III)

COc1c(C(=O)N[C@H]2CCCC[C@@H]2O)cc(Cc2ccc(C(=O)CCCCOC=O)nc2)c2ccccc12
EC50: 0.43 µM

Structures were worked out from names or drawings and are uncertain.
